Results published in patent US20160046678A1 (ZYNGENIA, published 2016).
These are yes or no findings as the source states them, for the method shown. Some results given as binding are weak or reduced against the parent protein; the word gives no strength.

Amino acid sequences for entries named in this document (tags omitted). Residues count along the entry.
UniProt P08069, residues 31-932: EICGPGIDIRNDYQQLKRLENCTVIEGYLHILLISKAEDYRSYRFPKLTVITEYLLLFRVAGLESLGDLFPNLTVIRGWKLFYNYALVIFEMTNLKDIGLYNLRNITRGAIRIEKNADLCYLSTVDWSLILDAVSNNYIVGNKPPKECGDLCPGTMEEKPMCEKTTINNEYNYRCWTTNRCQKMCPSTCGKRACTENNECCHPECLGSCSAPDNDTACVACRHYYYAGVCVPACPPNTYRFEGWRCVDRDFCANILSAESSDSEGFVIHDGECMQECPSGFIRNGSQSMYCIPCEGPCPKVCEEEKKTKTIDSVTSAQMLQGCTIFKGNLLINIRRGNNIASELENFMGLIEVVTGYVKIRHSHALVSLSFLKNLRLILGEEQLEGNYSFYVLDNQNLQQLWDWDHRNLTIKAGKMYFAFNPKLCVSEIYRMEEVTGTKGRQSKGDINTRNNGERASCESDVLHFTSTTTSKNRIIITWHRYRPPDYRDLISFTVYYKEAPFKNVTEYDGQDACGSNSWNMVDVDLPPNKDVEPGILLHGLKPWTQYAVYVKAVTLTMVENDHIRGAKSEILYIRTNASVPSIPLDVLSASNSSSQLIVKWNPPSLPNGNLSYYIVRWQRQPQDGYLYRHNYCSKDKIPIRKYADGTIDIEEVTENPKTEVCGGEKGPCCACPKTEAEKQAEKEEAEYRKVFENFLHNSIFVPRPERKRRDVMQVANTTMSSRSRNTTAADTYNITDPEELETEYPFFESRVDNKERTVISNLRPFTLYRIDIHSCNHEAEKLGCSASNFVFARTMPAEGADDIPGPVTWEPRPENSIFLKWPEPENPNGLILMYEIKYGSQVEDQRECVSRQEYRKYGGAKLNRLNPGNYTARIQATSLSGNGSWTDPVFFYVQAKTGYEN

T1: Angiopoietin-2 (Ang2) (human, UniProt O15123 19-496, biotin label in Examples 22-24)
T1 construct: also called rhAng2; recombinant Ang2
T1 sequence (looked up): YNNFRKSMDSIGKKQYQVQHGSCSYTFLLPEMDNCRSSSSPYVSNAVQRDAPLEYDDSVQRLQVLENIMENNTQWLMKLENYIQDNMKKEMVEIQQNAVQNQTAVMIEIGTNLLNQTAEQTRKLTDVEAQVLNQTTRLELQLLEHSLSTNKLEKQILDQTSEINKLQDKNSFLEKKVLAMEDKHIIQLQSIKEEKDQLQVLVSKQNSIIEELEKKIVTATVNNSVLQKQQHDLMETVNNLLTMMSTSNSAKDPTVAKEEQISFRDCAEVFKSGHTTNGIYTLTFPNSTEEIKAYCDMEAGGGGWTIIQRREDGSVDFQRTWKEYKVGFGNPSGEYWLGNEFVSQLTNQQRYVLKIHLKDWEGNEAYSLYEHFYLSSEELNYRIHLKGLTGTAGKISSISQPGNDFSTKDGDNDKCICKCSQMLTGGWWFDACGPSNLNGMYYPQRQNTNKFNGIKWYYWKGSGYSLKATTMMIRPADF


molecular target: IGF1R (UniProt P08069); assay: MRD identification, Example 48

| binding | Binder |
| --- | --- |
| binds | RMSEMDLCAEFFELCF [IGF562] |
| binds | SEWYHPLCVEFSELCF [IGF568] |
| binds | LCLEFRELCFDLSEPH [IGF543] |
| binds | VFQMHPLCLEFPELCF [IGF549] |
| binds | QGSKVLELCKEFPELCFDRANRL [IGF566] |
| binds | LCFEFAELCFDTEFYN [IGF564] |
| binds | MRLESLELCKEFPELCFSTDLTL [IGF544] |
| binds | TLSPHPLCVEFPELCF [IGF567] |
| binds | LSPEFPDLCLYFGLDC [IGF554] |
| binds | LSPAELLCLDFPELCF [IGF570] |
| binds | SAGEHWLCVEFQELCF [IGF569] |
| binds | LCAEFIELCFDLEPGI [IGF553] |
| binds | GSLSVPKLCKEFPELCFDKKMSG [IGF555] |
| binds | LTPAERLCDEFPVLCF [IGF571] |
| binds | PPIMHPLCLEFAELCF [IGF552] |
| binds | YEPPHSLCLEFVELCF [IGF551] |
| binds | LCQEFKELCFEAEFQA [IGF546] |
| binds | QSYEHWLCQEFHELCF [IGF560] |
| binds | APGEHWLCLEFQELCF [IGF548] |
| binds | LCAEFHELCFDISNQE [IGF563] |
| binds | QRFEPDDLCKEFPELCFNLNMNV [IGF556] |
| binds | SSPPHWLCLEFEELCF [IGF561] |
| binds | PRLCKEFPELCFEVPVIGNEEHYSL [IGF565] |
| binds | TMLEIPQLCKEFPELCFHDTTVW [IGF545] |
| binds | LCLEFAELCFGWDDNS [IGF557] |
| binds | RIYPSELCLEFAELCF [IGF559] |
| binds | KVTPFMLCQEFPELCF [IGF547] |
| binds | MSSNSIKLCKEFPELCFHIHGKD [IGF542] |

The next lines start with the binder.

| Binder | binding |
| --- | --- |
| TSSALKLCQEFPELCF [IGF536] | binds |
| DPSVPALCHEFPELCF [IGF539] | binds |
| LCSEFIELCFDQVPLR [IGF535] | binds |
| YVIPHPLCLEFSELCF [IGF538] | binds |
| QGWTHPLCLEFQELCF [IGF540] | binds |
| LSSYMLLCMEFSELCF [IGF537] | binds |
| FALVPSLCLEFNELCF [IGF541] | binds |

molecular target: T1, Angiopoietin-2 (Ang2); assay: Example 48, method not detailed

| binding | Binder |
| --- | --- |
| binds | ISTRNTDCYFYPNPPHCY [ANG920] |
| binds | ECYFYPNPPHCYHALTSK [ANG936] |
| binds | HWYFCPNPPNPPQCHLKW [ANG956] |
| binds | SVLALEDCYFYPNPHHCY [ANG952] |
| binds | ECYFYPNPPHCYVLKQQI [ANG919] |
| binds | ECYFYPNPPECYNVDDQA [ANG918] |
| binds | FSHLEQDCYFYPNPPHCY [ANG924] |
| binds | SPAHCSYCPFPPNSCFCY [ANG948] |
| binds | GVYSFDQCYVFPNPPDCY [ANG942] |
| binds | GSALLSDCYFYPNPPHCY [ANG951] |
| binds | PYQLMTDCYFFPNPPHCY [ANG926] |
| binds | TIYDCYIYPNPRHCYKLN [ANG935] |
| binds | FYYDCFFYPNPPNCYNSF [ANG923] |
| binds | RALDCYFYPNPQHCYQGI [ANG944] |
| binds | YPMNSHDCYFYPNPPQCY [ANG947] |
| binds | SPHECYFYPNPPHCYADR [ANG945] |
| binds | SIFLSLDCYFFPNPSNSL [ANG940] |
| binds | PTAVLMECYFYPNPDYCY [ANG954] |
| binds | ESFQNMDCYFYPNPPYCY [ANG929] |
| binds | SWPNHMECYFFPNPPHCY [ANG932] |
| binds | YGTECYFYPNPAHCYSNE [ANG955] |
| binds | VVLHYGDCYYYPNPPYCY [ANG943] |
| binds | LRLDLEECYWYPNPPYCK [ANG949] |
| binds | KSVGNTDCYFFPNPPHCY [ANG934] |
| binds | SPVDCYFYPNPPHCYDWD [ANG925] |
| binds | FYQSWVDCYFYPNPPHCS [ANG937] |
| binds | YALDLGGCYWFPNPPHCY [ANG939] |
| binds | PRKSFHDCYFYPNPPHCY [ANG930] |
| binds | DVQIEFDCYFYPNPPYCY [ANG946] |
